Results deposited as PubChem BioAssay AID743458 (Peter MacCallum Cancer Centre, 2014).
The deposit covers about 1,800 reagents; below is a part drawn at random. In the full data, 732 (41%) were called active. 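Calls are per siRNA reagent; a gene was deemed confirmed only if most of its four siRNAs scored.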 Reagents against one gene are numbered here.

Test: 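Retest earlier hits with independent siRNAs per gene for restoring vorinostat sensitivity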 (follow-up of hits)
System: human HCT116-VR colon cancer cells made resistant to vorinostat
Knock-down reagent: single siRNA or pool against human genes, 25 nM per single siRNA
Time to read-out: about 72 h after transfection, including 24 h of drug
Challenge: vorinostat, 2.5 µM final, for 24 h
Measurement: 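Live-cell fluorescent viability and luminescent caspase 3/7 activity after vorinostat treatment, background subtracted, mean of duplicate plates, as fold change over mock-transfected wells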
Scale: viability relative to mock: higher = more living cells than mock; caspase activity relative to mock: higher = more apoptosis than mock
Hit rule: 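Active means a reduced-viability or caspase-activation class, anything else inactive; classes could only be given to wells that looked healthy when left untreated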

{"target": "CCBE1 (GeneID 147372)", "reagent": 1, "viability relative to mock": 0.27, "caspase activity relative to mock": 1.86, "viability hit class": "no change", "caspase hit class": "no change", "outcome": "inactive"}
{"target": "CCBE1 (GeneID 147372)", "reagent": 2, "viability relative to mock": 0.92, "caspase activity relative to mock": 2.5, "viability hit class": "no change", "caspase hit class": "no change", "outcome": "inactive"}
{"target": "CCBE1 (GeneID 147372)", "reagent": 3, "viability relative to mock": 0.68, "caspase activity relative to mock": 1.68, "viability hit class": "no change", "caspase hit class": "no change", "outcome": "inactive"}
{"target": "CCBE1 (GeneID 147372)", "reagent": 4, "viability relative to mock": 0.93, "caspase activity relative to mock": 1.39, "viability hit class": "no change", "caspase hit class": "no change", "outcome": "inactive"}
{"target": "QTRT1 (GeneID 81890)", "reagent": 1, "viability relative to mock": 0.53, "caspase activity relative to mock": 3.52, "viability hit class": "reduced viability", "caspase hit class": "caspase activation", "outcome": "active"}
{"target": "QTRT1 (GeneID 81890)", "reagent": 2, "viability relative to mock": 0.91, "caspase activity relative to mock": 1.7, "viability hit class": "no change", "caspase hit class": "no change", "outcome": "inactive"}
{"target": "QTRT1 (GeneID 81890)", "reagent": 3, "viability relative to mock": 0.82, "caspase activity relative to mock": 1.75, "viability hit class": "no change", "caspase hit class": "no change", "outcome": "inactive"}
{"target": "QTRT1 (GeneID 81890)", "reagent": 4, "viability relative to mock": 0.94, "caspase activity relative to mock": 1.31, "viability hit class": "no change", "caspase hit class": "no change", "outcome": "inactive"}
{"target": "ALKBH5 (GeneID 54890)", "reagent": 1, "viability relative to mock": 0.84, "caspase activity relative to mock": 1.46, "viability hit class": "no change", "caspase hit class": "no change", "outcome": "inactive"}
{"target": "ALKBH5 (GeneID 54890)", "reagent": 2, "viability relative to mock": 0.66, "caspase activity relative to mock": 2.79, "viability hit class": "no change", "caspase hit class": "no change", "outcome": "inactive"}
{"target": "ALKBH5 (GeneID 54890)", "reagent": 3, "viability relative to mock": 0.94, "caspase activity relative to mock": 1, "viability hit class": "no change", "caspase hit class": "no change", "outcome": "inactive"}
{"target": "ALKBH5 (GeneID 54890)", "reagent": 4, "viability relative to mock": 0.42, "caspase activity relative to mock": 4.66, "viability hit class": "no change", "caspase hit class": "no change", "outcome": "inactive"}
{"target": "AMDHD2 (GeneID 51005)", "reagent": 1, "viability relative to mock": 0.86, "caspase activity relative to mock": 3.56, "viability hit class": "no change", "caspase hit class": "caspase activation", "outcome": "active"}
{"target": "AMDHD2 (GeneID 51005)", "reagent": 2, "viability relative to mock": 0.81, "caspase activity relative to mock": 1.47, "viability hit class": "no change", "caspase hit class": "no change", "outcome": "inactive"}
{"target": "AMDHD2 (GeneID 51005)", "reagent": 3, "viability relative to mock": 0.54, "caspase activity relative to mock": 4.12, "viability hit class": "reduced viability", "caspase hit class": "caspase activation", "outcome": "active"}
{"target": "AMDHD2 (GeneID 51005)", "reagent": 4, "viability relative to mock": 0.72, "caspase activity relative to mock": 2.99, "viability hit class": "no change", "caspase hit class": "caspase activation", "outcome": "active"}
{"target": "NINJ1 (GeneID 4814)", "reagent": 1, "viability relative to mock": 0.88, "caspase activity relative to mock": 1.13, "viability hit class": "no change", "caspase hit class": "no change", "outcome": "inactive"}
{"target": "NINJ1 (GeneID 4814)", "reagent": 2, "viability relative to mock": 0.62, "caspase activity relative to mock": 4.23, "viability hit class": "no change", "caspase hit class": "caspase activation", "outcome": "active"}
{"target": "NINJ1 (GeneID 4814)", "reagent": 3, "viability relative to mock": 0.88, "caspase activity relative to mock": 0.84, "viability hit class": "no change", "caspase hit class": "no change", "outcome": "inactive"}
{"target": "NINJ1 (GeneID 4814)", "reagent": 4, "viability relative to mock": 0.82, "caspase activity relative to mock": 1.56, "viability hit class": "no change", "caspase hit class": "no change", "outcome": "inactive"}
{"target": "TRIM24 (GeneID 8805)", "reagent": 1, "viability relative to mock": 1.02, "caspase activity relative to mock": 0.96, "viability hit class": "no change", "caspase hit class": "no change", "outcome": "inactive"}
{"target": "TRIM24 (GeneID 8805)", "reagent": 2, "viability relative to mock": 0.44, "caspase activity relative to mock": 3.43, "viability hit class": "reduced viability", "caspase hit class": "caspase activation", "outcome": "active"}
{"target": "TRIM24 (GeneID 8805)", "reagent": 3, "viability relative to mock": 1.04, "caspase activity relative to mock": 1.16, "viability hit class": "no change", "caspase hit class": "no change", "outcome": "inactive"}
{"target": "TRIM24 (GeneID 8805)", "reagent": 4, "viability relative to mock": 0.88, "caspase activity relative to mock": 1.77, "viability hit class": "no change", "caspase hit class": "no change", "outcome": "inactive"}
{"target": "RRM1 (GeneID 6240)", "reagent": 1, "viability relative to mock": 0.19, "caspase activity relative to mock": 4.53, "viability hit class": "no change", "caspase hit class": "no change", "outcome": "inactive"}
{"target": "RRM1 (GeneID 6240)", "reagent": 2, "viability relative to mock": 0.62, "caspase activity relative to mock": 2.63, "viability hit class": "no change", "caspase hit class": "caspase activation", "outcome": "active"}
{"target": "RRM1 (GeneID 6240)", "reagent": 3, "viability relative to mock": 0.58, "caspase activity relative to mock": 5.13, "viability hit class": "no change", "caspase hit class": "caspase activation", "outcome": "active"}
{"target": "RRM1 (GeneID 6240)", "reagent": 4, "viability relative to mock": 0.92, "caspase activity relative to mock": 0.92, "viability hit class": "no change", "caspase hit class": "no change", "outcome": "inactive"}

Part of the list above, reduced to “viability hit class”:
NINJ1 (GeneID 4814) #1	no change
NINJ1 (GeneID 4814) #2	no change
NINJ1 (GeneID 4814) #3	no change
